Laboratory results as given in patent US20240293413A1, “COMPOUND AND METHOD FOR TREATING CHEMOTHERAPY-RELATED GASTROINTESTINAL SIDE EFFECTS” (ONQUALITY PHARMACEUTICALS CHINA LTD., priority 2021, published 2024).
At least one compound was matched to its structure with a doubt left. Some entries repeat one wording, which the source may state once for all of them.

Columns and labels:
Format in all cases: in vivo
[1] = test system: diarrhea caused by a chemotherapeutic agent in Balb/c mice; assay: Examples 343-381 (Table 6): oral versus intravenous CDK inhibitor, relief of diarrhea caused by a chemotherapeutic agent; details: diarrhea caused by etoposide, etoposide in combination with cisplatin, carboplatin, gemcitabine, gemcitabine in combination with carboplatin, and topotecan; oral administration has the most significant effect
Text: Balb/c mice were fed for 1 week, and then divided into groups. The experiment was divided into a control group, a chemotherapeutic agent group, and an oral administration group of a CDK inhibitor, and an intravenous injection group of a CDK inhibitor, each of which comprised 10 mice, to perform the administration experiment, for which the administration dosage, mode, time and frequency were shown in Table 6. The control group: being injected/intragastrically administered with the same solvent as that used in the CDK inhibitor group (the time was shown in Table 6), and then being injected/intragastrically administered with the same solvent as that used in the chemotherapeutic agent group (the administration mode was shown in Table 6): the chemotherapeutic agent group: being injected/intragastrically administered with the same solvent as that used in the CDK inhibitor group (the time was shown in Table 6), and then being injected/intragastrically administered with the chemotherapeutic agent (the type, administration mode and dosage were shown in Table 6): the oral administration group of the CDK inhibitor: being intragastrically administered with the CDK inhibitor (the time was shown in Table 6), and then being administered with the chemotherapeutic agent (the mode and dosage were shown in Table 6): the intravenous injection group of the CDK inhibitor: being injected with the CDK inhibitor through tail vein (the time was shown in Table 6), and then being administered with the chemotherapeutic agent (the mode and dosage were shown in Table 6).
(§1) The diarrhea grading of mice was observed and recorded every day.

[2] = test system: diarrhea caused by a chemotherapeutic agent in Balb/c mice; assay: Examples 382-405 (Table 7): various administration modes of the CDK inhibitor, relief of diarrhea caused by a chemotherapeutic agent; details: diarrhea caused by docetaxel, carboplatin, gemcitabine, and gemcitabine plus carboplatin; under certain conditions; effect of oral administration most significant
Text: Balb/c mice were fed for 1 week, and then divided into groups. The experiment was divided into a control group, a chemotherapeutic agent group, CDK inhibitor groups (including an oral administration group of a CDK inhibitor, an intraperitoneal injection group of a CDK inhibitor, an intramuscular injection group of a CDK inhibitor, a local administration group of a CDK inhibitor), each of which comprised 10 mice, to perform the administration experiment, for which the administration dosage, mode, time and frequency were shown in Table 7. […]
as §1

[3] = test system: constipation caused by a chemotherapeutic agent in Balb/c mice; assay: Examples 406-443 (Table 8): various administration modes of the CDK inhibitor, relief of constipation caused by a chemotherapeutic agent; details: constipation caused by doxorubicin, etoposide, etoposide plus cisplatin, carboplatin, gemcitabine, under certain conditions, oral most significant
Text: Balb/c mice were fed for 1 week, and then divided into groups. The experiment was divided into a control group, a chemotherapeutic agent group, CDK inhibitor groups (including an oral administration group of a CDK inhibitor, an intravenous injection group of a CDK inhibitor, an intraperitoneal injection group of a CDK inhibitor, an intramuscular injection group of a CDK inhibitor, a local administration group of a CDK inhibitor), each of which comprised 10 mice, to perform the administration experiment, for which the administration dosage, mode, time and frequency were shown in Table 8. […]
The feces amount of mice within 3 hours was observed and recorded every day.

[4] = test system: diarrhea caused by the continuous administration of a chemotherapeutic agent in Balb/c mice; assay: Examples 444-469 (Table 9): oral CDK inhibitor, diarrhea caused by continuous administration of a chemotherapeutic agent
Text: Balb/c mice were fed for 1 week, and then divided into groups. The experiment was divided into a control group, a chemotherapeutic agent group, and a CDK inhibitor group, each of which comprised 10 mice, to perform the administration experiment, for which the administration dosage, mode, time and frequency were shown in Table 9. The control group: being intragastrically administered with the same solvent as that used in the CDK inhibitor group (the time was shown in Table 9), and then being injected/intragastrically administered with the same solvent as that used in the chemotherapeutic agent group (the administration mode was shown in Table 9): the chemotherapeutic agent group: being intragastrically administered with the same solvent as that used in the CDK inhibitor group (the time was shown in Table 9), and then being injected/intragastrically administered with the chemotherapeutic agent (the type, administration mode, dosage and duration time were shown in Table 9): the CDK inhibitor group: being intragastrically administered with the CDK inhibitor (the time was shown in Table 9), and then being administered with the chemotherapeutic agent (the type, administration mode, dosage and duration time were shown in Table 9).
The scoring of diarrhea can refer to the method of Akinobu Kurita (Cancer Chemother Pharmacol 2000: 46:211-20.), Grade 0: normal feces: Grade 1: mild diarrhea, the stools is slightly wet and soft: Grade 2: moderate diarrhea, loose stools and mild perianal contamination: Grade 3: severe diarrhea, watery stools and accompanied by severe perianal staining (see FIG. 1). It is regarded as effective remission when the diarrhea grading of mice in the CDK inhibitor group is reduced compared with the average diarrhea grading of mice in the chemotherapeutic agent group.
The diarrhea grading of mice was observed and recorded every day. At the end of the experiment, the number of mice in the CDK inhibitor group whose diarrhea grading was lower than that of mice in the chemotherapeutic agent group was recorded. Table 9 lists various animal experiment combinations of chemotherapeutic agents and CDK inhibitors, as well as the corresponding experimental results. (Relative remission rate %=the number of mice in the CDK inhibitor group whose diarrhea has been effectively relieved/the total number of mice in the CDK inhibitor group*100%. The establishment rate of diarrhea model in the chemotherapeutic agent group was 50%-80%, that is, about 5-8 of 10 mice developed diarrhea during the experiment, and there were cases of individual mice death or not developing diarrhea.)

[5] = test system: constipation caused by the continuous administration of a chemotherapeutic agent in Balb/c mice; assay: Examples 470-481 (Table 10): oral CDK inhibitor, constipation caused by continuous administration of a chemotherapeutic agent
Description: Balb/c mice were fed for 1 week, and then divided into groups. The experiment was divided into a control group, a chemotherapeutic agent group, and a CDK inhibitor group, each of which comprised 10 mice, to perform the administration experiment, for which the administration dosage, mode, time and frequency were shown in Table 10. […]
The feces reduction rate was calculated with reference to the method of Ji Eun Kim (Lab Anim Res. 2016 December: 32(4): 231-240.). […]
The feces amount of mice within 3 hours was observed and recorded every day. At the end of the experiment, the number of mice in the CDK inhibitor group whose feces reduction rate was lower than that of mice in the chemotherapeutic agent group was recorded. […]

[6] = test system: constipation caused by other anti-tumor medicaments in Balb/c mice; assay: Examples 486-487 (Table 12): oral CDK inhibitor, constipation caused by other anti-tumor medicaments; details: Palbociclib oral 150 mg/kg once a day for 14 days, 12 h before
[7] = continuous administration of fluorouracil and capecitabine for 7 days or above
[8] = continuous administration of fluorouracil for less than 7 days

SMILES | relief of diarrhea by oral administration and injection administration [1] | relief of diarrhea by oral, injection and local administration [2] | improvement of constipation by oral administration, intraperitoneal injection, intramuscular injection, local administration [3] | relieving effect on diarrhea [4, 7] | relieving effect on diarrhea [4, 8] | relieving effect on diarrhea ([5]; continuous administration of fluorouracil for 7 days or above) | relieving effect on constipation ([5]; oral, under certain conditions, continuous administration of fluorouracil for less than 7 days) | Remission rate ([6]; Example 486: constipation caused by Osimertinib (EGFR) oral 80 mg/kg once a day for 14 days, experimental cycle 14 days) | Remission rate ([6]; Example 487: constipation caused by Imatinib (tyrosine kinase inhibitor) oral 150 mg/kg once a day for 14 days, experimental cycle 12 days)
CCN1CCN(Cc2ccc(Nc3ncc(F)c(-c4cc(F)c5nc(C)n(C(C)C)c5c4)n3)nc2)CC1 [Abemaciclib] | effectively relieve diarrhea | can relieve diarrhea | can significantly improve constipation | not significant | significant relieving effects |  |  |  | 
CCc1cnn2c(NCc3ccc[n+]([O-])c3)cc(N3CCCC[C@H]3CCO)nc12 [Dinaciclib] | effectively relieve diarrhea |  |  |  |  |  |  |  | 
CC(=O)c1c(C)c2cnc(Nc3ccc(N4CCNCC4)cn3)nc2n(C2CCCC2)c1=O [Palbociclib] | effectively relieve diarrhea | can relieve diarrhea | can significantly improve constipation | not significant | significant relieving effects | not significant | significant relieving effect | Ineffective | Ineffective
CN1CCC(c2c(O)cc(O)c3c(=O)cc(-c4ccccc4Cl)oc23)C1CO (stereo not shown) [Riviciclib] | effectively relieve diarrhea |  |  |  |  |  |  |  | 
